The list shows a part of the results. These are raw signals, not scaled to a control.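 In the initial screen, polymyxin B was used at a concentration that permeabilizes Salmonella's outer membrane but not its inner membrane. Maximum growth was set by DMSO wells with or without polymyxin B. Since plates varied, data were ranked per plate, and compounds giving the lowest OD600 advanced as hits.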
Tested on: Salmonella enterica serovar Typhimurium SL1344
Assay: bacterial growth OD600 after 18 h with compound and polymyxin B; higher = more bacterial growth (less inhibition)
Settings: 50 µM, Mueller-Hinton broth

Row | SMILES | bacterial growth OD600 (polymyxin B 1 µg/mL) | bacterial growth OD600 (polymyxin B 0.75 µg/mL)
1 | C[C@@H]1CN(C(=O)C2(N3C[C@@H](C)O[C@@H](C)C3)Cc3ccccc3C2)C[C@H](C)O1 | 0.018 | –
2 | COc1ccc(-n2ncc(C(C)NCc3cccc(SC)c3)c2C)cc1 (stereo not given) | 1.06 | –
3 | O=C(NCCC(c1ccccc1)c1ccccc1)C1CC12CCN(C(=O)Cc1ccccc1F)CC2 (stereo not given) | – | 0.011
4 | Cc1cc(C)n(CCNC(=O)c2cc(NC(=O)CC3CCCC3)cc3nc(C4CCCO4)n(C)c23)n1 (stereo not given) | – | 0.806
5 | CCOC(=O)C1(CCOc2ccccc2)CCN(Cc2ccc(O)cc2)CC1 | 0.833 | –
6 | CCc1cc(C(=O)N2CCc3c(cnc(C)c3CNC(=O)c3ccccc3SC)C2)n(C)n1 | – | 0.875
7 | CCOC(=O)N1CCC(NC2CCN(c3cccc(NC(=O)CCCc4ccccc4)c3)CC2)CC1 | – | 0.743
8 | CCc1csc(CNC(=O)c2ccc(OCC3(C)CCCNC3)nc2)n1 (stereo not given) | 1.07 | –
9 | O=C(c1cn(CCN2CCCCC2)nn1)N1CCN(Cc2ccc3c(c2)OCO3)CC1 | 0.935 | –
10 | O=C(NCCc1ccccn1)C1(N2CCCCC2)Cc2ccccc2C1 | 0.781 | –
11 | Cn1ccnc1CNC(=O)c1cc(CN2CCC(Cc3ccccc3)CC2)on1 | – | 0.799
12 | CC(C)c1ccc(NC2CCCN(CC(C)(C)CO)C2)cc1 (stereo not given) | 1.06 | –
13 | Cc1ccc(CN2CCC(CN(C)Cc3cc(O)c4ccccc4n3)CC2)o1 | 0.82 | –
14 | CCC(C)CN1CCC(N2CCC(C(=O)NCc3cccnc3)CC2)CC1 (stereo not given) | 0.937 | –
15 | CCOc1ccc2nc(N3CCC(NCCc4ccccn4)CC3)nc(C)c2c1 | – | 0.012
16 | COCC1CCCN(C(=O)c2cc(COc3ccc(F)cc3F)on2)C1 (stereo not given) | 0.922 | –
17 | CC(=O)c1ccc(N2CCC(C3CCN(Cc4cccnc4)CC3)C2)nc1 (stereo not given) | – | 0.718
18 | Cc1cccc(C(=O)NCc2nc(-c3ccccc3NC(=O)CC3CCCC3)oc2C)n1 | – | 0.015
19 | COCCN(CC1CCN(Cc2ccccc2OC)CC1)C(=O)c1n[nH]c2c1CCC2 | 1.05 | –
20 | CN(C)c1ncccc1CNS(=O)(=O)N1CCOCC1 | 0.944 | –
21 | O=C1N(Cc2cccnc2)CCCC12CCN(Cc1cccc(F)c1F)C2 (stereo not given) | 0.928 | –
22 | O=C(Nc1cnn(-c2ccc(C(=O)N3CCN(c4nc5ccccc5s4)CC3)cc2)c1)c1ccoc1 | – | 0.947
23 | Cc1cccc(CNc2ccc(C(=O)NCCC3CCCCN3C)cn2)n1 (stereo not given) | – | 0.825
24 | COc1cccc(CCC2CCCN(C(=O)c3snnc3C)C2)c1 (stereo not given) | – | 0.723
25 | Cc1cnc(CNC(=O)c2cc(CN3CCC(Cc4ccccc4)CC3)on2)cn1 | 0.964 | –
26 | CCn1ccnc1CN(C)Cc1nc(-c2ccc(C(=O)OC)cc2)no1 | 0.807 | –
27 | C[C@@H]1CN(C(=O)c2nc3sccn3c2CN2CCC[C@H]2CO)C[C@H](C)O1 | 0.913 | –
28 | Cc1ccc(CN2C[C@H](O)[C@@H](N3CCOCC3)C2)cc1 | 0.796 | –
29 | O=C(C1=CCCC1)N1CCC2(CCCN(Cc3ccc(F)cc3)C2)C1 (stereo not given) | 0.905 | –
30 | C=CCNC(=O)C1CCCN1c1nc(C)c2cc(OCC)ccc2n1 (stereo not given) | – | 0.778

Some of these compounds in order of SMILES length, descending:
Row | SMILES | bacterial growth OD600 (polymyxin B 1 µg/mL) | bacterial growth OD600 (polymyxin B 0.75 µg/mL)
1 | C[C@@H]1CN(C(=O)C2(N3C[C@@H](C)O[C@@H](C)C3)Cc3ccccc3C2)C[C@H](C)O1 | 0.018 | –
8 | CCc1csc(CNC(=O)c2ccc(OCC3(C)CCCNC3)nc2)n1 (stereo not given) | 1.07 | –
20 | CN(C)c1ncccc1CNS(=O)(=O)N1CCOCC1 | 0.944 | –

Reference: the supplement of paper PMC12889115
